This note sets out measurements from patent US20250154200A1, “CYCLIC PEPTIDE FOR CANCER IMMUNOTHERAPY” (Kansas State University Research Foundation, priority 2021, published 2025).

The subject of series [1] is LLC tumors in mouse lungs. The series can be described thus: Orthotopic LLC cell allograft growth in mouse lung. In kind it is in vivo. As for the experimental part: For in vivo studies, the effect of CTLA-4ip peptide on the tumor growth in the mouse lung was evaluated using an orthotropic LLC cell allograft model. After 5 days of LLC cell inoculation, all groups of mice were pretreated with JAWS II murine dendritic cells primed with irradiated LLC cells. […] Twenty-three days after the LLC cell inoculation, mice were sacrificed and tumor burdens were evaluated by microscopic and macroscopic observation.

Series [2] concerns CTLA-4 expression in NK cells. As to the kind of experiment: CTLA-4 expression in primary cultured NK cells. In kind it is cell-based, mouse. As for the experimental part: Natural Killer (NK) calls were isolated from C57BL/6 mouse spleen using MagniSort™ Mouse NK cell Enrichment Kit (ThermoFisher Scientific, Waltham, MA). The cells were seeded into 12-well plate and treated with 12.5 ng/ml recombinant mouse IL-2 for an induction of CTLA-4 protein expression; the expression of the CTLA-4 protein in cell surface of immune cells is very low under physiological conditions. After 24 hours, the cells were treated with 1, 10, and 20 μM CTLA-4ip. Anti-CTLA-4 antibody (aCTLA-4, 1 and 5 μg/ml) was used as a positive control treatment. PBS was used as a negative control. At 48 and 72 hours after various agent treatments, CTLA-4 expression was evaluated by Flow cytometry. The surface CTLA-4 on the cells were first stained with BV421-conjugated anti-CTLA-4 antibodies (UC10-4B9 clone). The cells were fixed with Fixation Buffer (BioLegend, San Diego, CA), permeabilizated by Intracellular Staining Permeabilization Wash Buffer (BioLegend), and stained with APC-conjugated anti-CTLA-4 antibodies (UC10-4B9 clone).

The conditions of series [3]: incubated with cells, LC-MS over time.
The test system of series [4] is CD4 and CD8 T cell population in tumor-bearing mouse blood. As to the kind of experiment: Flow cytometry of T cell populations and immune checkpoint molecules in tumor-bearing mouse blood. The settings on record: mouse blood at end of study, 10 mg/kg/day.

`CC[C@H](C)[C@@H]1NC(=O)[C@H](CCC(=O)O)NC(=O)[C@H](CO)NC(=O)[C@H](Cc2ccc(O)cc2)NC(=O)[C@H](CCCNC(=N)N)NC(=O)[C@H](CCCCN)NC(=O)[C@H](C)NC(=O)[C@H](C(C)C)NC(=O)[C@H](Cc2c[nH]c3ccccc23)NC(=O)CNC(=O)[C@H]([C@@H](C)O)NC(=O)[C@@H]2CCCN2C(=O)[C@H]([C@@H](C)O)NC(=O)[C@H](CC(C)C)NC(=O)[C@H](C(C)C)NC(=O)[C@H]([C@@H](C)O)NC(=O)[C@H](CC(=O)O)NC1=O` [R10]: in series [1] (10 mg/kg/day IP, 23 days after LLC inoculation, after JAWS-irrLLC), the “mice with tumor nodules (macroscopic observation)” value is recorded as 4 out of 5. For the same molecule, in series [1] (10 mg/kg/day IP, 23 days after LLC inoculation, after JAWS-irrLLC, mean±SD), the “Ave. number of tumor nodules” value was found to be 1.60±0.80. Besides, in series [1] (10 mg/kg/day, IP, every other day, 4 times), the “number and size of tumor nodules in the lungs compared to PBS treated control” value was “markedly smaller”. For the same molecule, the “change of CTLA-4 expression in cell surface” value in series [2] (NK cells from the spleen, within 72 hour incubation) was determined as 4.3%. Besides, the “surface and intracellular expression of CTLA-4” value in series [2] (additional experiments out to day 5 and day 7) is on record as “remaining unchanged”. In addition, in the series with H1N1 infected CT26 cells, the “cytotoxicity of NK cells for H1N1-infected CT26 cells” value is “better than the positive control”. In addition, in series [3], the “cellular uptake” value is recorded as “taken up by the cells” and the “resistance to enzymatic degradation in cells” value is “resistant to enzymatic degradation”. Moreover, in series [4], the “CTLA4 expression in CD8+ IFNγ+ activated cytotoxic T cell (MFI)” value came to 9.71±10.79, the “CTLA4 expression in Treg (MFI)” value was determined as 863.02±269.34, the “Treg population (CD4+ FoxP3+)” value was 0.50±0.74% and the “cytotoxic T lymphocyte (CTL) population (CD8+ IFNγ+)” value is reported as 5.33±1.85%.
